{"source": "PubChem BioAssay AID743454 | Peter MacCallum Cancer Centre | 2014", "purpose": "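Search for knock-downs that restore vorinostat killing in resistant colon cancer cells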 (primary screen)", "system": "human HCT116-VR colon cancer cells, selected for vorinostat resistance", "reagent": "siRNA pool against human genes, 40 nM siRNA pool", "duration": "vorinostat for 24 h, read-out about 72 h after transfection", "treatment": "vorinostat at 2.5 µM final", "measurement": "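Cell viability by CellTiter-Fluor and caspase 3/7 activity by luminescence, each scaled to mock wells per plate, duplicates averaged, then robust z-scored over all plates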", "reading the numbers": "viability robust z-score: higher = more viable cells than screen typical; caspase robust z-score: higher = more caspase 3/7 activity than screen typical", "hit rule": "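Hits are knock-downs in viability class RV1/RV2 or caspase class CA1/CA2, excluding ones that killed cells in the no-drug cell-count arm; hits then retested with single siRNAs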", "note": "The whole screen tested about 18,000 reagents; this is a part drawn at random. Over the whole deposit, 450 (2.5%) are marked active. 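Single biological run; no consistent viability z cut-off exists, so the class columns, not z-scores, define the calls.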"}
The opening 2 entries, ahead of the listing:
{"gene":"MAPT","viability hit class":"no change","caspase hit class":"no change","viability robust z-score":0.44,"caspase robust z-score":0.4,"call":"inactive"}
{"gene":"CRYM","viability hit class":"no change","caspase hit class":"no change","viability robust z-score":-0.75,"caspase robust z-score":-1.16,"call":"inactive"}

Main list, repeating the preview:
{"gene":"MAPT","viability hit class":"no change","caspase hit class":"no change","viability robust z-score":0.44,"caspase robust z-score":0.4,"call":"inactive"}
{"gene":"CRYM","viability hit class":"no change","caspase hit class":"no change","viability robust z-score":-0.75,"caspase robust z-score":-1.16,"call":"inactive"}
{"gene":"ARID5A","viability hit class":"no change","caspase hit class":"no change","viability robust z-score":-0.48,"caspase robust z-score":1.92,"call":"inactive"}
{"gene":"TRUB1","viability hit class":"no change","caspase hit class":"no change","viability robust z-score":0.71,"caspase robust z-score":-0.49,"call":"inactive"}
{"gene":"SUCNR1","viability hit class":"no change","caspase hit class":"no change","viability robust z-score":0.16,"caspase robust z-score":-0.52,"call":"inactive"}
{"gene":"SEMA6A","viability hit class":"no change","caspase hit class":"no change","viability robust z-score":-0.36,"caspase robust z-score":-0.46,"call":"inactive"}
{"gene":"OSR2","viability hit class":"no change","caspase hit class":"no change","viability robust z-score":0.04,"caspase robust z-score":-0.36,"call":"inactive"}
{"gene":"SLC38A10","viability hit class":"no change","caspase hit class":"no change","viability robust z-score":-1.23,"caspase robust z-score":0.4,"call":"inactive"}
{"gene":"ECHDC2","viability hit class":"no change","caspase hit class":"no change","viability robust z-score":-0.07,"caspase robust z-score":3.09,"call":"inactive"}
{"gene":"CREBRF","viability hit class":"no change","caspase hit class":"no change","viability robust z-score":-0.39,"caspase robust z-score":-1.08,"call":"inactive"}
{"gene":"PNCK","viability hit class":"no change","caspase hit class":"no change","viability robust z-score":0.26,"caspase robust z-score":2.17,"call":"inactive"}
{"gene":"PKP3","viability hit class":"no change","caspase hit class":"no change","viability robust z-score":0.2,"caspase robust z-score":0.01,"call":"inactive"}
{"gene":"MRM2","viability hit class":"no change","caspase hit class":"no change","viability robust z-score":1.01,"caspase robust z-score":0.1,"call":"inactive"}
{"gene":"MRGPRX3","viability hit class":"no change","caspase hit class":"no change","viability robust z-score":0.62,"caspase robust z-score":0.1,"call":"inactive"}
{"gene":"ROBO1","viability hit class":"no change","caspase hit class":"no change","viability robust z-score":-0.11,"caspase robust z-score":-0.19,"call":"inactive"}
{"gene":"HOXA2","viability hit class":"no change","caspase hit class":"CA1 (caspase activation)","viability robust z-score":-0.58,"caspase robust z-score":5.66,"call":"active"}
{"gene":"GRXCR2","viability hit class":"no change","caspase hit class":"no change","viability robust z-score":0.49,"caspase robust z-score":-0.53,"call":"inactive"}
{"gene":"TBC1D2","viability hit class":"no change","caspase hit class":"no change","viability robust z-score":-0.16,"caspase robust z-score":0.96,"call":"inactive"}
{"gene":"RPL13","viability hit class":"no change","caspase hit class":"no change","viability robust z-score":-2.96,"caspase robust z-score":-0.98,"call":"inactive"}
{"gene":"HSPH1","viability hit class":"no change","caspase hit class":"no change","viability robust z-score":0.36,"caspase robust z-score":0.01,"call":"inactive"}
{"gene":"C1orf141","viability hit class":"no change","caspase hit class":"no change","viability robust z-score":1.21,"caspase robust z-score":-0.63,"call":"inactive"}
